Experimental findings from patent publication US20250283871A1, “COMPOSITIONS AND METHODS FOR MODULATING THE INTERACTION BETWEEN SS18-SSX FUSION ONCOPROTEIN AND NUCLEOSOMES” (Dana-Farber Cancer Institute, Inc., priority 2020, published 2025) are described below.

This data set has as its system BAF complex subunits and histone proteins. The experiment in a line: Mass spectrometry proteomics of purified HA-SS18 WT and HA-SS18-SSX1 complexes (Tables 5A-5E). Also on record: species or system human.
Where [1] appears, read: HA-SS18SSX1_NE_peptides: protein co-purified with HA-SS18-SSX1 BAF complexes from soluble nuclear extract (NE), HEK-293T cells.
Where [2] appears, read: HA-SS18WT_NE_peptides: proteins co-purified with HA-SS18 WT from nuclear extract (NE), HEK-293T.
The mark [3] stands for this setting: HA-SS18WT_CHR_peptides: protein identified in HA-SS18 WT BAF complex purification from nuclease-treated solubilized chromatin (CHR), HEK-293T.

B1: TOR1A (protein, UniProt O14656 21-332, looked up)
Torsin-1A: VEPISLGLALAGVLTGYIYPRLYCLFAECCGQKRSLSREALQKDLDDNLFGQHLAKKIILNAVFGFINNPKPKKPLTLSLHGWTGTGKNFVSKIIAENIYEGGLNSDYVHLFVATLHFPHASNITLYKDQLQLWIRGNVSACARSIFIFDEMDKMHAGLIDAIKPFLDYYDLVDGVSYQKAMFIFLSNAGAERITDVALDFWRSGKQREDIKLKDIEHALSVSVFNNKNSGFWHSSLIDRNLIDYFVPFLPLEYKHLKMCIRVEMQSRGYEIDEDIVSRVAEEMTFFPKEERVFSDKGCKTVFTKLDYYYDD
Regarding B1, under setting [1], the “Total (peptides)” value amounted to 1 and the “Unique (peptides)” value turned out to be 1.

B2: ALDH2 (protein, UniProt P05091 18-517, looked up)
Aldehyde dehydrogenase, …: SAAATQAVPAPNQQPEVFCNQIFINNEWHDAVSRKTFPTVNPSTGEVICQVAEGDKEDVDKAVKAARAAFQLGSPWRRMDASHRGRLLNRLADLIERDRTYLAALETLDNGKPYVISYLVDLDMVLKCLRYYAGWADKYHGKTIPIDGDFFSYTRHEPVGVCGQIIPWNFPLLMQAWKLGPALATGNVVVMKVAEQTPLTALYVANLIKEAGFPPGVVNIVPGFGPTAGAAIASHEDVDKVAFTGSTEIGRVIQVAAGSSNLKRVTLELGGKSPNIIMSDADMDWAVEQAHFALFFNQGQCCCAGSRTFVQEDIYDEFVERSVARAKSRVVGNPFDSKTEQGPQVDETQFKKILGYINTGKQEGAKLLCGGGIAADRGYFIQPTVFGDVQDGMTIAKEEIFGPVMQILKFKTIEEVVGRANNSTYGLAAAVFTKDLDKANYLSQALQAGTVWVNCYDVFGAQSPFGGYKMSGSGRELGEYGLQAYTEVKTVTVKVPQKNS
Take B2: under setting [1], the “Total (peptides)” value was 1 and the “Unique (peptides)” value amounted to 1.

B3: GGT7 (protein, UniProt Q9UJ14 1-472; Q9UJ14 473-662, looked up)
Glutathione hydrolase 7 heavy …: MAAENEASQESALGAYSPVDYMSITSFPRLPEDEPAPAAPLRGRKDEDAFLGDPDTDPDSFLKSARLQRLPSSSSEMGSQDGSPLRETRKDPFSAAAAECSCRQDGLTVIVTACLTFATGVTVALVMQIYFGDPQIFQQGAVVTDAARCTSLGIEVLSKQGSSVDAAVAAALCLGIVAPHSSGLGGGGVMLVHDIRRNESHLIDFRESAPGALREETLQRSWETKPGLLVGVPGMVKGLHEAHQLYGRLPWSQVLAFAAAVAQDGFNVTHDLARALAEQLPPNMSERFRETFLPSGRPPLPGSLLHRPDLAEVLDVLGTSGPAAFYAGGNLTLEMVAEAQHAGGVITEEDFSNYSALVEKPVCGVYRGHLVLSPPPPHTGPALISALNILEGFNLTSLVSREQALHWVAETLKIALALASRLGDPVYDSTITESMDDMLSKVEAAYLRGHINDSQAAPAPLLPVYELDGAPT
Glutathione hydrolase 7 light …: AAQVLIMGPDDFIVAMVSSLNQPFGSGLITPSGILLNSQMLDFSWPNRTANHSAPSLENSVQPGKRPLSFLLPTVVRPAEGLCGTYLALGANGAARGLSGLTQVLLNVLTLNRNLSDSLARGRLHPDLQSNLLQVDSEFTEEEIEFLEARGHHVEKVDVLSWVHGSRRTNNFIIAVKDPRSPDAAGATIL
Consider B3, for which, under setting [1], the “Total (peptides)” value was determined as 1 and the “Unique (peptides)” value worked out at 1.

B4: DHCR24 (protein, UniProt Q15392 23-516, looked up)
Delta(24)-sterol reductase: LEFVLIHQRWVFVCLFLLPLSLIFDIYYYVRAWVVFKLSSAPRLHEQRVRDIQKQVREWKEQGSKTFMCTGRPGWLTVSLRVGKYKKTHKNIMINLMDILEVDTKKQIVRVEPLVTMGQVTALLTSIGWTLPVLPELDDLTVGGLIMGTGIESSSHKYGLFQHICTAYELVLADGSFVRCTPSENSDLFYAVPWSCGTLGFLVAAEIRIIPAKKYVKLRFEPVRGLEAICAKFTHESQRQENHFVEGLLYSLDEAVIMTGVMTDEAEPSKLNSIGNYYKPWFFKHVENYLKTNREGLEYIPLRHYYHRHTRSIFWELQDIIPFGNNPIFRYLFGWMVPPKISLLKLTQGETLRKLYEQHHVVQDMLVPMKCLQQALHTFQNDIHVYPIWLCPFILPSQPGLVHPKGNEAELYIDIGAYGEPRVKHFEARSCMRQLEKFVRSVHGFQMLYADCYMNREEFWEMFDGSLYHKLREKLGCQDAFPEVYDKICKAARH
B4: under setting [1], the “Total (peptides)” value was 1 and the “Unique (peptides)” value stood at 1. Under setting [2], the “Total (peptides)” value was 1 and the “Unique (peptides)” value was 1.

B5: ORC1 (protein, UniProt Q13415 1-861, looked up)
Origin recognition complex …: MAHYPTRLKTRKTYSWVGRPLLDRKLHYQTYREMCVKTEGCSTEIHIQIGQFVLIEGDDDENPYVAKLLELFEDDSDPPPKKRARVQWFVRFCEVPACKRHLLGRKPGAQEIFWYDYPACDSNINAETIIGLVRVIPLAPKDVVPTNLKNEKTLFVKLSWNEKKFRPLSSELFAELNKPQESAAKCQKPVRAKSKSAESPSWTPAEHVAKRIESRHSASKSRQTPTHPLTPRARKRLELGNLGNPQMSQQTSCASLDSPGRIKRKVAFSEITSPSKRSQPDKLQTLSPALKAPEKTRETGLSYTEDDKKASPEHRIILRTRIAASKTIDIREERTLTPISGGQRSSVVPSVILKPENIKKRDAKEAKAQNEATSTPHRIRRKSSVLTMNRIRQQLRFLGNSKSDQEEKEILPAAEISDSSSDEEEASTPPLPRRAPRTVSRNLRSSLKSSLHTLTKVPKKSLKPRTPRCAAPQIRSRSLAAQEPASVLEEARLRLHVSAVPESLPCREQEFQDIYNFVESKLLDHTGGCMYISGVPGTGKTATVHEVIRCLQQAAQANDVPPFQYIEVNGMKLTEPHQVYVQILQKLTGQKATANHAAELLAKQFCTRGSPQETTVLLVDELDLLWTHKQDIMYNLFDWPTHKEARLVVLAIANTMDLPERIMMNRVSSRLGLTRMCFQPYTYSQLQQILRSRLKHLKAFEDDAIQLVARKVAALSGDARRCLDICRRATEICEFSQQKPDSPGLVTIAHSMEAVDEMFSSSYITAIKNSSVLEQSFLRAILAEFRRSGLEEATFQQIYSQHVALCRMEGLPYPTMSETMAVCSHLGSCRLLLVEPSRNDLLLRVRLNVSQDDVLYALKDE
As to B5, under setting [1], the “Total (peptides)” value was found to be 1 and the “Unique (peptides)” value turned out to be 1. Moreover, under setting [3], the “Total (total peptides)” value is 1 and the “Unique (unique peptides)” value is given as 1.

B6: PARL (protein, UniProt Q9H300 53-379, looked up)
Presenilin-associated …: FRKAPRKVEPRRSDPGTSGEAYKRSALIPPVEETVFYPSPYPIRSLIKPLFFTVGFTGCAFGSAAIWQYESLKSRVQSYFDGIKADWLDSIRPQKEGDFRKEINKWWNNLSDGQRTVTGIIAANVLVFCLWRVPSLQRTMIRYFTSNPASKVLCSPMLLSTFSHFSLFHMAANMYVLWSFSSSIVNILGQEQFMAVYLSAGVISNFVSYVGKVATGRYGPSLGASGAIMTVLAAVCTKIPEGRLAIIFLPMFTFTAGNALKAIIAMDTAGMILGWKFFDHAAHLGGALFGIWYVTYGHELIWKNREPLVKIWHEIRTNGPKKGGGSK
Turning to B6, under setting [1], the “Total (peptides)” value is recorded as 1 and the “Unique (peptides)” value was found to be 1. Also, under setting [2], the “Total (peptides)” value was 2 and the “Unique (peptides)” value is 2.

B7: YTHDF2 (protein, UniProt Q9Y5A9 2-579, looked up)
YTH domain-containing family …: SASSLLEQRPKGQGNKVQNGSVHQKDGLNDDDFEPYLSPQARPNNAYTAMSDSYLPSYYSPSIGFSYSLGEAAWSTGGDTAMPYLTSYGQLSNGEPHFLPDAMFGQPGALGSTPFLGQHGFNFFPSGIDFSAWGNNSSQGQSTQSSGYSSNYAYAPSSLGGAMIDGQSAFANETLNKAPGMNTIDQGMAALKLGSTEVASNVPKVVGSAVGSGSITSNIVASNSLPPATIAPPKPASWADIASKPAKQQPKLKTKNGIAGSSLPPPPIKHNMDIGTWDNKGPVAKAPSQALVQNIGQPTQGSPQPVGQQANNSPPVAQASVGQQTQPLPPPPPQPAQLSVQQQAAQPTRWVAPRNRGSGFGHNGVDGNGVGQSQAGSGSTPSEPHPVLEKLRSINNYNPKDFDWNLKHGRVFIIKSYSEDDIHRSIKYNIWCSTEHGNKRLDAAYRSMNGKGPVYLLFSVNGSGHFCGVAEMKSAVDYNTCAGVWSQDKWKGRFDVRWIFVKDVPNSQLRHIRLENNENKPVTNSRDTQEVPLEKAKQVLKIIASYKHTTSIFDDFSHYEKRQEEEESVKKERQGRGK
Take B7: under setting [1], the “Total (peptides)” value is 1 and the “Unique (peptides)” value stood at 1.

B8: MED23 (protein, UniProt Q9ULK4 1-1368, looked up)
Mediator of RNA polymerase II …: METQLQSIFEEVVKTEVIEEAFPGMFMDTPEDEKTKLISCLGAFRQFWGGLSQESHEQCIQWIVKFIHGQHSPKRISFLYDCLAMAVETGLLPPRLVCESLINSDTLEWERTQLWALTFKLVRKIIGGVDYKGVRDLLKVILEKILTIPNTVSSAVVQQLLAAREVIAYILERNACLLPAYFAVTEIRKLYPEGKLPHWLLGNLVSDFVDTFRPTARINSICGRCSLLPVVNNSGAICNSWKLDPATLRFPLKGLLPYDKDLFEPQTALLRYVLEQPYSRDMVCNMLGLNKQHKQRCPVLEDQLVDLVVYAMERSETEEKFDDGGTSQLLWQHLSSQLIFFVLFQFASFPHMVLSLHQKLAGRGLIKGRDHLMWVLLQFISGSIQKNALADFLPVMKLFDLLYPEKEYIPVPDINKPQSTHAFAMTCIWIHLNRKAQNDNSKLQIPIPHSLRLHHEFLQQSLRNKSLQMNDYKIALLCNAYSTNSECFTLPMGALVETIYGNGIMRIPLPGTNCMASGSITPLPMNLLDSLTVHAKMSLIHSIATRVIKLAHAKSSVALAPALVETYSRLLVYMEIESLGIKGFISQLLPTVFKSHAWGILHTLLEMFSYRMHHIQPHYRVQLLSHLHTLAAVAQTNQNQLHLCVESTALRLITALGSSEVQPQFTRFLSDPKTVLSAESEELNRALILTLARATHVTDFFTGSDSIQGTWCKDILQTIMSFTPHNWASHTLSCFPGPLQAFFKQNNVPQESRFNLKKNVEEEYRKWKSMSNENDIITHFSMQGSPPLFLCLLWKMLLETDHINQIGYRVLERIGARALVAHVRTFADFLVYEFSTSAGGQQLNKCIEILNDMVWKYNIVTLDRLILCLAMRSHEGNEAQVCYFIIQLLLLKPNDFRNRVSDFVKENSPEHWLQNDWHTKHMNYHKKYPEKLYFEGLAEQVDPPVQIQSPYLPIYFGNVCLRFLPVFDIVIHRFLELLPVSKSLETLLDHLGGLYKFHDRPVTYLYNTLHYYEMHLRDRAFLKRKLVHAIIGSLKDNRPQGWCLSDTYLKCAMNAREENPWVPDDTYYCRLIGRLVDTMAGKSPGPFPNCDWRFNEFPNPAAHALHVTCVELMALAVSGKEVGNALLNVVLKSQPLVPRENITAWMNAIGLIITALPEPYWIVLHDRIVSVISSPSLTSETEWVGYPFRLFDFTACHQSYSEMSCSYTLALAHAVWHHSSIGQLSLIPKFLTEVLLPIVKTEFQLLYVYHLVGPFLQRFQQERTRCMIEIGVAFYDMLLNVDQCSTHLNYMDPICDFLYHMKYMFTGDSVKEQVEKIICNLKPALKLRLRFITHISKMEPAAVPPQAMNSGSPAPQSNQVPVSLPVTQ
As to B8, under setting [1], the “Total (peptides)” value is given as 1 and the “Unique (peptides)” value came out at 1. Under setting [2], the “Total (peptides)” value worked out at 2 and the “Unique (peptides)” value stood at 2.
